According to paper PMC12475165:
Results are given in words; binding and its absence hold for the method and conditions named. Binding seen in cells or lysates may run through a third protein. Here binding means that the protein was enriched with, or labelled near, the bait; the list need not be complete.

Chains of the proteins cited; added tags and fusions are not shown.
UniProt Q05127: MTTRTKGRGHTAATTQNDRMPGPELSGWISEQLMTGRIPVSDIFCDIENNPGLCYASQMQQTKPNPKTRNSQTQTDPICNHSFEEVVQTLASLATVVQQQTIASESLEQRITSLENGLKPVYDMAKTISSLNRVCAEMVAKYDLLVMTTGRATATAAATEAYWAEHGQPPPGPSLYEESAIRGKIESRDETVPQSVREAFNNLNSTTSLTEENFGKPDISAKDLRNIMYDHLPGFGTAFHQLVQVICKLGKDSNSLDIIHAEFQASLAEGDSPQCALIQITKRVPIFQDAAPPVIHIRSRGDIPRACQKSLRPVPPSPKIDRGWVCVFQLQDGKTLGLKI

Target: N-terminal BioID2-tagged EBOV VP35 (Ebola virus (EBOV)) (UniProt Q05127)
Experiment: proximity labelling

B1: EDC4 (endogenous, Flp-In T-Rex 293 cells) (protein, UniProt Q6P2E9 1-1401)
chain: MASCASIDIEDATQHLRDILKLDRPAGGPSAESPRPSSAYNGDLNGLLVPDPLCSGDSTSANKTGLRTMPPINLQEKQVICLSGDDSSTCIGILAKEVEIVASSDSSISSKARGSNKVKIQPVAKYDWEQKYYYGNLIAVSNSFLAYAIRAANNGSAMVRVISVSTSERTLLKGFTGSVADLAFAHLNSPQLACLDEAGNLFVWRLALVNGKIQEEILVHIRQPEGTPLNHFRRIIWCPFIPEESEDCCEESSPTVALLHEDRAEVWDLDMLRSSHSTWPVDVSQIKQGFIVVKGHSTCLSEGALSPDGTVLATASHDGYVKFWQIYIEGQDEPRCLHEWKPHDGRPLSCLLFCDNHKKQDPDVPFWRFLITGADQNRELKMWCTVSWTCLQTIRFSPDIFSSVSVPPSLKVCLDLSAEYLILSDVQRKVLYVMELLQNQEEGHACFSSISEFLLTHPVLSFGIQVVSRCRLRHTEVLPAEEENDSLGADGTHGAGAMESAAGVLIKLFCVHTKALQDVQIRFQPQLNPDVVAPLPTHTAHEDFTFGESRPELGSEGLGSAAHGSQPDLRRIVELPAPADFLSLSSETKPKLMTPDAFMTPSASLQQITASPSSSSSGSSSSSSSSSSSLTAVSAMSSTSAVDPSLTRPPEELTLSPKLQLDGSLTMSSSGSLQASPRGLLPGLLPAPADKLTPKGPGQVPTATSALSLELQEVEPLGLPQASPSRTRSPDVISSASTALSQDIPEIASEALSRGFGSSAPEGLEPDSMASAASALHLLSPRPRPGPELGPQLGLDGGPGDGDRHNTPSLLEAALTQEASTPDSQVWPTAPDITRETCSTLAESPRNGLQEKHKSLAFHRPPYHLLQQRDSQDASAEQSDHDDEVASLASASGGFGTKVPAPRLPAKDWKTKGSPRTSPKLKRKSKKDDGDAAMGSRLTEHQVAEPPEDWPALIWQQQRELAELRHSQEELLQRLCTQLEGLQSTVTGHVERALETRHEQEQRRLERALAEGQQRGGQLQEQLTQQLSQALSSAVAGRLERSIRDEIKKTVPPCVSRSLEPMAGQLSNSVATKLTAVEGSMKENISKLLKSKNLTDAIARAAADTLQGPMQAAYREAFQSVVLPAFEKSCQAMFQQINDSFRLGTQEYLQQLESHMKSRKAREQEAREPVLAQLRGLVSTLQSATEQMAATVAGSVRAEVQHQLHVAVGSLQESILAQVQRIVKGEVSVALKEQQAAVTSSIMQAMRSAAGTPVPSAHLDCQAQQAHILQLLQQGHLNQAFQQALTAADLNLVLYVCETVDPAQVFGQPPCPLSQPVLLSLIQQLASDLGTRTDLKLSYLEEAVMHLDHSDPITRDHMGSVMAQVRQKLFQFLQAEPHNSLGKAARRLSLMLHGLVTPSLP
modifications: biotinylated by BioID2 in the cells (sites not given)
- binding: binds
